The values that follow come from PMC7819943, “Rice protein-binding microarrays: a tool to detect cis-acting elements near promoter regions in rice”.

By UniProt entry, the sequences of proteins in these tests, tags left out.
UniProt Q0JBA9, entry or part of it: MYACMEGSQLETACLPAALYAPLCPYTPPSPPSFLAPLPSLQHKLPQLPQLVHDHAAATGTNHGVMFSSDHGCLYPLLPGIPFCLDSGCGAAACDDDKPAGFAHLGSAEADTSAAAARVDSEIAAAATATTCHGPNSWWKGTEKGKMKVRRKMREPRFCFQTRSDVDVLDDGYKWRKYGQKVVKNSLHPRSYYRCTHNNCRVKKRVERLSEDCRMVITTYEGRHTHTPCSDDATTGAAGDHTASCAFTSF

The list shows a part of the results.

The target of this assay is OsWRKY34 (Oryza sativa, UniProt Q0JBA9 1-250). Description: protein-binding microarray (RPBM); PBS, 2% BSA, 51.3 ng/ul salmon testes DNA, 50 uM zinc acetate, 200 nM TF, 25 C, 1 h; high values mean tight binding. The following applies: protein: recombinant; tags: N-terminal polyhistidine and DsRed monomer fusion (pET32a); label: CyDye5-dUTP incorporated in the synthesized complementary strand; 3' TTTTT single-stranded linker to array surface; dsDNA, one strand shown. Summed up: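 Binding signal is defined as the fluorescence intensity of each feature in arbitrary units, read on an Axon 4000B scanner. Transcription factors with N-terminal polyhistidine and DsRed fusions came from E. coli BL21-CodonPlus and were purified on Ni–NTA. They were incubated at 200 nM for 1 h at 25 °C on a custom Agilent array that had been made double-stranded with Cy5-dUTP, with 50 µM zinc acetate present, and the array was washed.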
On to “AACTCCATCTTCTTCTTTGCTTCGCCCTTGATTTGTGTGCCGGAGTCACCTAGTGCAG”, for which the binding signal is 10400 fluorescence intensity (a.u.). The result for “GTAATCGCCTCTCACGTCAGTACGCGTCCCAACCTGCTCCCGGAGTCACCTAGTGCAG” reads 8050 fluorescence intensity (a.u.); that for “AACAATCTCACAATCACCCAGGGCCGAACGCAGCCTTATACGGAGTCACCTAGTGCAG”, 8800 fluorescence intensity (a.u.). Take “CTTTTTCCTATATATTTATAATTTGCAATTTTTTTTACTACGGAGTCACCTAGTGCAG”: the binding signal is 8810 fluorescence intensity (a.u.). The same measure for “CATCATGTCTCTCCGCTTAACCGCTCCTACGACTCCATCCCGGAGTCACCTAGTGCAG”: 9700 fluorescence intensity (a.u.); for “TTTAGTTTAGTTCGTCCATCTTTGTCGATTTGCGCTGAAACGGAGTCACCTAGTGCAG”: 10800 fluorescence intensity (a.u.).

Consider “GCATAGTAATTTGATTTTTGTTTGTTATTTTGTTATAATTCGGAGTCACCTAGTGCAG”, for which the binding signal was 10700 fluorescence intensity (a.u.).

In the case of “TGCATCGCGTGCTTTTTCGGCCATGCACCTCTCGTCGTCTCGGAGTCACCTAGTGCAG”, the binding signal was 8480 fluorescence intensity (a.u.). The result for “CCTCCGCTCCCTCACCACCCACGCCGCCGCCGCCGCCGCCCGGAGTCACCTAGTGCAG” reads 11100 fluorescence intensity (a.u.). Turning to “ATTCACTTGGTTCCCAGCTCAATACTCACATCTGCTTCCACGGAGTCACCTAGTGCAG”, the binding signal is 9040 fluorescence intensity (a.u.). The result for “GCTGCCCCGCGGGCGTTGAGTTTCTTCTCTACTTCCTCCGCGGAGTCACCTAGTGCAG” reads 8450 fluorescence intensity (a.u.); that for “ACCTCGCCTACCTCCACTCTCTCGCGCTCGCTCTCCAATGCGGAGTCACCTAGTGCAG”, 9280 fluorescence intensity (a.u.); that for “TGCCCGGACACCTCTCGGTTTGACCGCCGCCCATTGTCTGCGGAGTCACCTAGTGCAG”, 9630 fluorescence intensity (a.u.).

Turning to “TACTCGTATGCTGTACTACGTACTCCAGTACACTTTTTTTCGGAGTCACCTAGTGCAG”, the binding signal is 10700 fluorescence intensity (a.u.).

As for “TTGCAAACTTGCTTGTACTTGCGGTTGACTCTCCACTAGGCGGAGTCACCTAGTGCAG”, the binding signal was 8180 fluorescence intensity (a.u.). The result for “ATGTCCCACGCCGCAAGGGATCCCTACAGGGCCCCACCCTCGGAGTCACCTAGTGCAG” reads 8230 fluorescence intensity (a.u.); that for “GATGCTTGCGCTTGCGCTACCGTCTCCGTCTCAATCCCCACGGAGTCACCTAGTGCAG”, 8180 fluorescence intensity (a.u.).

For the sequence “AGCCACTATGACCCTAGTTTCATCCATTTTCTGGTATTCACGGAGTCACCTAGTGCAG”, the binding signal was 10100 fluorescence intensity (a.u.). For “TCTGTATGGCCCTTTTTTTTTGTGACAATGCTACATGAATCGGAGTCACCTAGTGCAG”, the binding signal is 10100 fluorescence intensity (a.u.).

Consider “CTGGCCTGCCGCTGCTGCTTGTTGCTTCTGCTACTGTGTTCGGAGTCACCTAGTGCAG”, for which the binding signal is 9210 fluorescence intensity (a.u.). The result for “ACTTGTTTATTCTTCTATTGGTTGCAGGGATTATGGTTGACGGAGTCACCTAGTGCAG” reads 9830 fluorescence intensity (a.u.); that for “CTGCGTCTCCTCGGTCTCCTCGCGAGCTCGCCGCCGGCCGCGGAGTCACCTAGTGCAG”, 10100 fluorescence intensity (a.u.); that for “ACTGGGTCAATGTTTTCTCCCCACAAGTTTGCTCTTTCCACGGAGTCACCTAGTGCAG”, 9660 fluorescence intensity (a.u.). Consider “CCTGCATTCCCACTTTGTACGCCATGGTTTCTCGATTTCTCGGAGTCACCTAGTGCAG”, for which the binding signal was 11000 fluorescence intensity (a.u.). “CCGCCGCCTCTGCATTCTCTTCTACCTCCTCACCGTCGTCCGGAGTCACCTAGTGCAG”: the binding signal is 11000 fluorescence intensity (a.u.). In the case of “CATCTTCAACAGCACCATCTCCATCTGATAGCCAGATTGCCGGAGTCACCTAGTGCAG”, the binding signal is 8110 fluorescence intensity (a.u.).

As for “CGCCGTAATATACCACCATTCTCTTTTTCCGTCCGGGTCACGGAGTCACCTAGTGCAG”, the binding signal was 9650 fluorescence intensity (a.u.). The same measure for “CTGGTTGTGTGGGCGGAAGTTGGCTATGCTGGCGCATGGGCGGAGTCACCTAGTGCAG”: 9920 fluorescence intensity (a.u.). The same measure for “CAAATTCTAGACTTTTTGGTGGGTTGCGTGCGAGGGGTGGCGGAGTCACCTAGTGCAG”: 10500 fluorescence intensity (a.u.); for “GTCTCAAAAACTCATTCTCCACACGTAATGGATACTTTTGCGGAGTCACCTAGTGCAG”: 8800 fluorescence intensity (a.u.); for “GAGGACCCTACAGGTTAGGATCTCGGGAGTGGGATAGGGGCGGAGTCACCTAGTGCAG”: 8170 fluorescence intensity (a.u.). In the case of “GGGCTCCTTATACTGCAATACTAGCTTAATTCTGTTTTCACGGAGTCACCTAGTGCAG”, the binding signal is 9350 fluorescence intensity (a.u.). On to “GCGCTAATTTAACTGAACTTATAGTGGCCTTCATTATCATCGGAGTCACCTAGTGCAG”, for which the binding signal was 8610 fluorescence intensity (a.u.). As to “TTTCCCGTCTCGCGTCGCGAACTAACTTAAATATAACCATCGGAGTCACCTAGTGCAG”, the binding signal is 8260 fluorescence intensity (a.u.). The same measure for “GGGTGATCAATGGTGCGGCAGCCTATCCGTCCTCTTGCTCCGGAGTCACCTAGTGCAG”: 10500 fluorescence intensity (a.u.).

Consider “GAATTTCATTAACAAATGTCAAATATCGTGTGTTCATGTGCGGAGTCACCTAGTGCAG”, for which the binding signal was 8540 fluorescence intensity (a.u.). The same measure for “GATCGATTGCCATGCCATCCCACCCACCGTTCGTTGGTTTCGGAGTCACCTAGTGCAG”: 8110 fluorescence intensity (a.u.); for “TACTTTATCCGCGGCGGGTAGCTGGGGAGGGAGGGGAGGCCGGAGTCACCTAGTGCAG”: 22500 fluorescence intensity (a.u.); for “TTTAAGTACTTCCTTGTTTCGTCGTATGCCTAATATAAATCGGAGTCACCTAGTGCAG”: 9700 fluorescence intensity (a.u.). The same measure for “AATTCTCGTAACATTCTTATTTTATACGTTCGGAAATCATCGGAGTCACCTAGTGCAG”: 9520 fluorescence intensity (a.u.). The same measure for “ATAGTTAAGGGACCCCGTATATCTGGTTTTACGGTTGGGGCGGAGTCACCTAGTGCAG”: 9730 fluorescence intensity (a.u.). As for “TCTTTCCTTTTGATTTGGTTTCTTTCCGTCCGATTTGTGACGGAGTCACCTAGTGCAG”, the binding signal is 8950 fluorescence intensity (a.u.).
